## Primary screen of a compound library

From ChEMBL document CHEMBL3988442, “University of Dundee, Small-Polar-MMV Screening Library” (2021).

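Whole-cell growth test on Mycobacterium tuberculosis, read after 3 days in glucose-containing 7H9 medium; the read-out is not stated. Tested at 500 µM. The record gives no direction; compounds that gave an IC50 in retests scored well above the rest, so higher reads as more growth inhibition. Of about 18,000 compounds tested this way, about 1,400 (7.9%) reached 50% or more in at least one test.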

Each number is a percent effect as filed. The controls that fix the scale are not given in the record; negative values are as filed. Compounds were drawn at random from those tested, without regard to their results.

SMILES,Percent Effect
CCN(CC1CCOC1)C(=O)c1cc(I)c[nH]1 (stereo not given),71.11
CC(=O)N1CCN(Cc2cc(C#N)cs2)C(C)(C)C1,18.69
Cn1cncc1CN1CCCC(CS(C)(=O)=O)C1 (stereo not given),18.32
CC(C)CCC1CCCCN1C(=O)CN (stereo not given),35.14
N#Cc1cccc(OCCSc2nnc[nH]2)c1,37.9
CNC(=O)CCN(C)Cc1cc2n(n1)CCNC2,-0.8053
OCC1(NCc2ccc(F)c(Cl)c2)CCOCC1,12.37
OC1CCc2ccccc21 (stereo not given),2.877
CCC(O)CN1CCN(CC2CCOCC2)CC1 (stereo not given),2.026
CO[C@H]1CN(C(=O)c2csc(CN(C)C)n2)CC[C@H]1N,-2.562
Cc1ccc(-c2nc(CSc3nnc(N)[nH]3)no2)cc1,66.94
Cc1ccoc1CNC(C)Cn1cncn1 (stereo not given),-0.7037
Cc1cc(CN(C)C(=O)C2CCCN2S(C)(=O)=O)no1 (stereo not given),13.81
Cc1cccc(C(=O)NC2CC(N)C2)n1 (stereo not given),7.328
CC(C)c1ccc(C(=O)N2CCC(O)CC2)cc1,35.38
CC(C)(C)OC(=O)CN(CCCO)Cc1cccnc1,40.18
CC1CCCCN1CCNC(=O)c1cnccn1 (stereo not given),3.264
O=C(N[C@H]1CCCNC1)c1ccc(F)cc1F,13.75
CC(C)n1ccnc1CN(C)CC(C)(C)S(C)(=O)=O,5.938
CCOC(=O)CNS(=O)(=O)c1c(C)ccc2nsnc12,21.85
COc1cccc(CNCC2CCOC2)c1 (stereo not given),-5.145
O=C(c1ccncc1F)N1CCC(c2cc[nH]n2)CC1,-1.97
Cn1nccc1CNS(=O)(=O)c1nccs1,4.963
CN(C)C(=O)CC(N)c1ccccc1 (stereo not given),6.584
NS(=O)(=O)NCCCc1ccc(Br)cc1F,82.56
CC(N)c1cc[nH]c(=O)c1 (stereo not given),1.958
CC(Sc1nncn1CCc1cccs1)C(N)=O (stereo not given),2.451
CC(NC(=O)Cn1ccc(=O)n(C)c1=O)c1cccs1 (stereo not given),1.068
Cc1c[nH]c(CN(C)C(=O)C2CCCCCN2C)n1 (stereo not given),-0.845
Cc1cnn(CCNCCC(=O)NC(C)C)c1,3.34
CCS(=O)(=O)CC(=O)Nc1cc(Cl)ccc1C,19.41
O=C(CN1CCC(O)CC1)N1CCCCCCC1,10.63
Cc1ccc(C(=O)N2CCOCC2)cc1-n1cccc1,19.31
Cn1cc(C#N)cc1C(=O)NCC1CCCNC1 (stereo not given),-0.4979
O=C(Cc1ccccc1F)NCCNc1ncccn1,14.69
O=C(C1CCNCC1)N1CCc2ccccc2C1,13.45
CCC(CC)C(CNC(=O)c1ccc(O)nc1)N(C)C (stereo not given),10.56
OC1(CNC2CC2)CCC1,0.1374
CNCc1cnc(C)s1,1.531
O=C(c1ccncc1Br)N1CCCc2cccc(O)c21,-17.17
CC(Cc1ccco1)NC(=O)Cn1cc(Br)ccc1=O (stereo not given),26.11
CCN1CCCC1CNC(=O)c1ccc(C(C)=O)s1 (stereo not given),12.99
Cc1cccc(CNC(=O)N2CCOC(C)C2)n1 (stereo not given),1.583
Cc1cc(C(=O)N2CCC(O)(CN(C)C)C2)cc(C)n1 (stereo not given),8.62
Cc1ccc(CNC2CCSC2)c(N2CCCC2)n1 (stereo not given),16.8
CCN(CC)C(=O)c1cccc(C(=O)N(CC)CC)c1,10.09
COc1cc(Br)c(CN(C)CC(=O)N(C)C)c(OC)c1,7.061
O=C(CNc1ccncc1Cl)NCc1ccco1,1.652
COc1ccc(S(=O)(=O)n2cncn2)cc1C,12.37
CN1CCC(CCO)C1 (stereo not given),9.367
Cn1nc(CC#N)c2ccccc21,15.3
Cc1nccn1CCCN1CCC2(CCO2)CC1,-8.426
CCc1ccc(CN(C)CCC(=O)NC2CC2)nc1,6.638
OC(C1CCNCC1)C1CCOCC1 (stereo not given),-8.405
COCc1nc2n(n1)CCCC2NC1CCSCC1 (stereo not given),5.609
CCn1ccc(C(=O)NCCc2noc(COC)n2)n1,10.79
CNCc1nnc2n1CCC2,-14.76
Cc1c(C=C2C(=O)Nc3ccc(F)cc32)cnn1C,14.8
CC(C)c1c(N)c(=O)n(-c2ccccc2)n1C,18.48
Cc1cccc(OCC(=O)NCCn2cncn2)c1C,13.75
COc1ccc(CNC(=O)C(C)(C)C)c(OC)c1OC,33.65
CN(C)c1ccc(-c2[nH][nH]c(=O)c2CCN)cc1,31.04

Once more, the final 4:

| SMILES | Percent Effect |
|---|---|
| `CC(C)c1c(N)c(=O)n(-c2ccccc2)n1C` | 18.48 |
| `Cc1cccc(OCC(=O)NCCn2cncn2)c1C` | 13.75 |
| `COc1ccc(CNC(=O)C(C)(C)C)c(OC)c1OC` | 33.65 |
| `CN(C)c1ccc(-c2[nH][nH]c(=O)c2CCN)cc1` | 31.04 |